Test results reported in PubChem BioAssay AID540276 (National Center for Advancing Translational Sciences (NCATS), 2011).
Out of some 300,000 compounds screened, about 5,400 (1.8%) were called active. This list was built around the results that the source calls inconclusive (neither active nor inactive); the mix of calls is not that of the screen. Calls come from the whole dose curve; tested in HEK293 cells. Potencies beside an inconclusive call are fits to weak or partial responses and may not hold up.

assay: qHTS for inhibitors of binding or entry into cells for Marburg Virus; conditions: Marburg virus pseudotyped entry inhibition, cell reporter; series mostly up to 37.8 µM
Potency is the fitted concentration of half-maximal effect.

Row | SMILES | Potency
1 | COc1ccc(-c2cc3ccccc3[nH]2)cc1 | inactive
2 | O=c1[nH]c(=S)c2ncn(-c3ccccc3)c2[nH]1 | inconclusive: 25.1 µM [activator, single point]
3 | CNc1ccccc1C(C)(C)c1cc(-c2ccc(F)cc2)no1 | inconclusive: 5.62 µM [inhibitor, full curve]
4 | O=C(N/N=C/c1ccncc1)c1ccccc1OCc1ccc(Br)cc1 | inconclusive: 16.4 µM [inhibitor, partial curve, poor fit]
5 | CCCCc1nnc(NC(=O)c2ccccc2OCc2c(C)noc2C)s1 | inactive
6 | Nc1nc(-c2ccc(Cl)cc2)nn1C(=O)c1cccnc1 | inactive
7 | Nc1ccc(-c2cnc(-c3ccc(N)cc3)nc2)cc1 | inconclusive: 11.6 µM [inhibitor, single point]
8 | CCOc1ccccc1Nc1nnc(SCC(=O)N(C)C2CCS(=O)(=O)C2)s1 (configuration not stated) | inconclusive: 25.1 µM [inhibitor, partial curve, poor fit]
9 | COC(=O)c1ccc(C(=O)OC)c(NC(=O)CN2CCN(c3ccccc3OC)CC2)c1 | inactive
10 | CCOC(=O)N1CCN(C(=S)NC(=O)c2c(-c3c(Cl)cccc3Cl)noc2C)CC1 | inconclusive: 35.5 µM [inhibitor, single point]
11 | CCOCCCNC(=O)CSc1ccccc1 | inconclusive: 0.103 µM [activator, partial curve, poor fit]
12 | N#Cc1ccsc1NC(=O)CN1CCN(S(=O)(=O)c2ccccc2C(F)(F)F)CC1 | inactive
13 | CC1Cc2ccccc2N1c1ncnc2nc[nH]c12 (configuration not stated) | inactive
14 | Cc1ccc(S(=O)(=O)N2CCOCC2)cc1NC(=O)COC(=O)CNC(=O)c1ccc(Cl)cc1Cl | inactive
15 | COc1ccc(Cl)cc1NC(=O)c1cc2nc(-c3ccc4c(c3)OCO4)cc(C(F)(F)F)n2n1 | inconclusive: 5.62 µM [inhibitor, single point]
16 | CCc1nnc(NS(=O)(=O)c2ccc(Nc3ccc([N+](=O)[O-])c4nonc34)cc2)s1 | inconclusive: 1.41 µM [inhibitor, partial curve, poor fit]
17 | CCOc1ccc(OCCOCCNCCOC)cc1 | inactive
18 | Cc1ccc2nc(SCC(=O)c3cc(C)n(C)c3C)[nH]c2c1 | inactive
19 | CCN(CC)S(=O)(=O)c1cccc(-c2nnc(SCC(=O)NCCC3=CCCCC3)n2N)c1 | inconclusive: 35.5 µM [inhibitor, single point]
20 | O=S(=O)(c1cccc(Br)c1)N1CCN(c2ccnc3cc(Cl)ccc23)CC1 | inconclusive: 35.5 µM [inhibitor, single point]
21 | O=C(c1ccco1)N1CCN(Cc2ccc(Cl)cc2)CC1 | inactive
22 | C(#Cc1ccc(C#CCN2CCOCC2)cc1)CN1CCOCC1 | inactive
23 | Cn1cc(C(=O)Nc2ccc(F)c(Cl)c2)cn1 | inconclusive: 3.16 µM [activator, single point]
24 | Cc1ccc(N2C(=O)CS(=O)(=O)C23C(=O)N(Cc2cccc(F)c2)c2ccccc23)cc1Cl (configuration not stated) | inconclusive: 10 µM [inhibitor, partial curve, poor fit]

Two records drawn at random from those above:
Row | SMILES | Potency
21 | O=C(c1ccco1)N1CCN(Cc2ccc(Cl)cc2)CC1 | inactive
3 | CNc1ccccc1C(C)(C)c1cc(-c2ccc(F)cc2)no1 | inconclusive: 5.62 µM [inhibitor, full curve]

Following part

Row | SMILES | Potency
25 | O=C(c1cc(-c2ccco2)nc2ccccc12)N(Cc1nnc(-c2ccc(Cl)cc2)o1)C1CC1 | inconclusive: 10 µM [inhibitor, partial curve, poor fit]
26 | C=CCc1cccc2cc(C(=O)NCc3cccnc3)c(=O)oc12 | inactive
27 | CCC(C)c1ccccc1NC(=O)COC(=O)C1=COCCO1 (configuration not stated) | inconclusive: 1.41 µM [inhibitor, partial curve, poor fit]
28 | COc1ccc(CN(C(=O)CN2C(=O)C(C)Oc3ccccc32)C2CCCC2)c(OC)c1 (configuration not stated) | inconclusive: 32.6 µM [inhibitor, single point]
29 | CCOC(=O)c1nn(-c2ccc(F)cc2)c(=O)cc1OCC(=O)Nc1ccc(OCC)cc1 | inactive
30 | CCN(CCO)c1ccc(N=Cc2c(O)n(C)c(=S)[nH]c2=O)cc1 | inconclusive: 35.5 µM [activator, single point]
31 | COc1ccc(S(=O)(=O)N2CCCCC2)cc1NC(=O)Cc1ccsc1 | inconclusive: 35.5 µM [inhibitor, single point]
32 | Cc1cc(C)c(N2CCN(S(=O)(=O)N3CCCCCC3)CC2)c(C)c1 | inconclusive: 35.5 µM [inhibitor, single point]
33 | Cc1cc2cc3c(cc2nc1SCC(=O)Nc1nc(C)c(C)s1)OCO3 | inconclusive: 5.8 µM [inhibitor, full curve, poor fit]
34 | CCSc1nc(=O)n(-c2ccccc2)c(C)c1C(C)=O | inactive
35 | CCCCn1c(CN2CCN(c3ccc(F)cc3)CC2)nc2c1c(=O)n(C)c(=O)n2C | inactive
36 | O=C(CNC(=O)c1ccc(Br)o1)NCc1ccc(F)cc1 | inconclusive: 0.562 µM [activator, full curve, poor fit]
37 | CCN(CC)S(=O)(=O)c1ccc(Cl)c(NC(=O)c2cc(Cl)cc(Cl)c2)c1 | inconclusive: 1.26 µM [activator, single point]
38 | CC(NC(=O)COC(=O)C12CC3CC(CC(Br)(C3)C1)C2)c1ccccc1 (configuration not stated) | inactive
39 | O=C(CN1CCOCC1)Nc1nc2cc([N+](=O)[O-])ccc2s1 | inconclusive: 35.5 µM [activator, single point]
40 | Cc1nnc(SCc2ccc(F)cc2)n1NC/C=C/c1ccccc1 | inactive
41 | CCOc1ccc(NC(=O)CN(C)C(=O)CCc2ccccc2Cl)cc1OCC | inactive
42 | CCC(CO)[n+]1c(C)cc(/C=C2\Sc3ccccc3N2Cc2ccccc2)cc1C (configuration not stated) | inconclusive: 3.55 µM [inhibitor, full curve, poor fit]
43 | O=C(NC1CCCC1)c1cc2cc(Br)ccc2o1 | inactive
44 | Cc1ccc2c(c1)cc(C(=O)Nc1ccccc1C)n2C | inactive
45 | Cn1cc(CCC(=O)NCc2cccc(Cl)c2)c2ccccc21 | inconclusive: 35.5 µM [inhibitor, single point]
46 | O=C(O)c1cccc(Nc2ncnc3sccc23)c1 | inconclusive: 3.98 µM [inhibitor, full curve, poor fit]
47 | Cc1ccc(OCC(=O)NCCS(=O)(=O)N2CCN(c3ccccc3)CC2)cc1 | inconclusive: 1.12 µM [activator, full curve, poor fit]
